B1: il2ra_site2_2erj_sap_19_mot_HHH_b2_03659_000000135_0001_38_56_H_._HHH_b2_01839_0001_0000100005_0000001_0_0001 (protein)
chain: SSSSSDLRQLYELLNELMKAIENGDEELFEELVREIRELAEELDSENAREMLEVLERSFKSSSSS
B2: il2ra_site2_2erj_sap_18_mot_9b841c8fe2e6d1e24304b827c5c38554_0001_1_af2_000000119_0001_36_49_H_._HHH_b1_03327_0001_0000200020_0000001_0_0001 (protein)
chain: SSSSSSEEEEEIRELIEEAKQIEDPEEALEVLRKAAQLAFQINDFELFSEIAELLRELGSSSSSS
B3: il2ra_site2_3nfp_sap_20_mot_HHH_b1_03259_000000044_0001_22_38_H_._HHH_b2_07525_0001_0000400029_0000001_0_0001_af2pred_0001_af2pred (protein)
chain: SEEEELEREAKENPEEFIRRAALEALEAGDDELFSEVLLLREAVERGEIPPEEAARLVVEVLRES
B4: il2ra_site2_2erj_sap_20_mot_HHH_b1_08290_000000297_0001_19_37_H_._HEEHE_0898_0001_0000100005_0000001_0_0001 (protein)
chain: SSSSDAWEFAAEVSIEALELYKEGNPEEAERLVEEAEEIAKELNDPHALEYLEHLLKHIRHSSSS
B5: il2ra_site1_2b5i_normal_mot_HHH_b1_08745_af2_000000166_0001_39_57_H_._HHH_b1_05884_0001_0000600032_0000001_0_af2pred_dldesign_0_af2pred (protein)
chain: SSSSSPEIQKLREMFEEADRLFKAGKYEEAKELLEKALKLAKELGANLELRIIQSALEQLESSSS
B6: il2ra_site1_3nfp_sap_4_mot_ems_3hC_617_000000125_0001_25_41_H_._HHH_b1_07175_0001_0000300021_0000001_0_0001_af2pred_0001_1_af2pred_swapped (protein)
chain: SSSSSTEELQEASEKVLKLLREADRDPERAEELLKRARELIEEVNSRALKFILERIEELLSSSSS
B7: il2ra_site2_2erj_normal_mot_HHH_b2_01649_000000268_0001_20_36_H_._HHH_b2_02810_0001_0000700046_0000001_0 (protein)
chain: SSSSDEEVREEVERLLEEAKQIEDEEEAEKLLRRAAELAFRNRDEELWSLIAEVLEELIRSSSSS
B8: il2ra_site2_2erj_normal_mot_c2bf78bdce995293a161f7082e24b401_0001_af2_000000082_0001_17_32_H_._HHH_b2_06191_0001_0000300020_0000001_0 (protein)
chain: SSSSSLERLYELANRLLHLVHNNDEEEFEELLREAQELAEKFGSQTVEEILEFLEELIKGSSSSS
B9: il2ra_site1_3nfp_sap_23_mot_ems_3hC_921_af2_000000143_0001_22_40_H_._HHH_b1_07723_0001_0000200012_0000001_0_0001 (protein)
chain: SEDEEEAEKLLKRIVPPFAVRMLKILAEAVKRGNPNAKRRLEYDERSARHLGDEDVVEAIELLRK
B10: il2ra_site2_2erj_normal_mot_6c2800a769814540b5b47941e710ff28_0001_000000197_0001_35_49_H_._HHH_b2_01083_0001_0000200011_0000001_0 (protein)
chain: SSSSLEEDFRVAVEAAARASELHRRGNPEEAQEVLEEAIEFVEKNGNENAKELLESLLRILSSSS
B11: il2ra_site1_3nfp_sap_18_mot_ems_3hC_836_0002_000000087_0001_24_40_H_._HHH_b2_00679_0001_0000200013_0000001_0_0001_af2pred_0001_af2pred (protein)
chain: SSSSSDEKEELEELIRRAHKLAKNGNPEEARELLEQAEELAEKLGSRAAVRFVRSILRILSSSSS
B12: il2ra_site1_3nfp_sap_7_mot_HHH_b2_02342_000000249_0001_42_55_H_._HHH_b1_05136_0001_0001500020_0000001_0_0001_af2pred_0001_af2pred_1 (protein)
chain: SSSSDEEKALRKFVEDAVKAAGLSEEDKERLEEVVEELVRQGVSSQEAARIIAELAAKLHHSSSS
B13: il2ra_site2_2erj_sap_7_mot_87b7e031a888ead1881e674a44c3f2a3_0001_1_af2_000000022_0001_37_50_H_._HHH_b1_04171_0001_0000200003_0000001_0_0001 (protein)
chain: SSSSDEEELKKLLEEAEELLENGNPEEAWRVLRRAASLAWQLNDFELWSKIAELLRAIAKSSSSS
B14: il2ra_site1_3nfp_sap_18_mot_HHH_b1_01736_000000293_0001_24_39_H_._HHH_b2_01871_0001_0000300019_0000001_0_0001_af2pred_0001_af2pred_1 (protein)
chain: SDRAIELYVERAVKLNSPKALKKFLEDLEKHHGDPEEAERFLEEALEAVLGDPEEVERLLKLAKE
B15: il2ra_site1_1z92_normal_mot_HHH_b1_08597_af2_000000202_0001_42_56_H_._6e12af4a48b4634929ba45889b8be782_0001_0001_0000300015_0000001_0 (protein)
chain: NVEWAIENLERLARLQGNPEVEEVLRRVLELLKKNEEEAERFLEKLVEELGDKLLRLLLRMLKDA
B16: il2ra_site1_1z92_normal_mot_01209686ea234b34325f918445e6eade_0001_af2_000000154_0001_18_33_H_._HHH_b2_03062_af2_0001_0000100027_0000001_0 (protein)
chain: SSSSDEELEEIAEEIVEELVRKLNLSEHDEEALRKDAELAVRLGFSPKSLEYALEHAAKLASSSS
B17: il2ra_site2_3nfp_normal_mot_HHH_b2_05281_000000198_0001_39_56_H_._HHH_b2_04588_0001_0000400028_0000001_0 (protein)
chain: SSSSSDVEEEVERLLEEARKSSDEEERERLIAEAVELAYEARDSELFYLIAEVAFELRQSSSSSS
B18: il2ra_site2_3nfp_sap_20_mot_HHH_b2_00486_000000264_0001_1_16_H_._HHH_b1_03674_af2_0001_0000300006_0000001_0_0001 (protein)
chain: SSSSDREEVEELLEEARELLEEGNPQEAAQVVMEASELAAKLNDPELARAVLELYELLKRSSSSS
B19: il2ra_site1_3nfp_sap_10_mot_HHH_b1_07644_af2_000000110_0001_40_57_H_._HHH_b2_03060_af2_0001_0000700014_0000001_0_0001 (protein)
chain: SSSSSERMKEFEKIAREVMRLLREGDEEEAKRLIERLEELAEEWNDPAAEWLVEQLERRASSSSS

This is one part of the list.

In this test the target is il2ra, P01589. Briefly: yeast display titration.
As for B1, the “apparent Kd” value is “inactive: no binding seen”.
Under B2 stands “inactive: no binding seen”; under B3, “inactive: no binding seen”.
Under B4 stands “inactive: no binding seen”; under B5, “inactive: no binding seen”.
Under B6 stands “inactive: no binding seen”; under B7, “inactive: no binding seen”.
As to B8, the “apparent Kd” value is “inactive: no binding seen”.
Regarding B9, the “apparent Kd” value was “inactive: no binding seen”.
In the case of B10 it was “inactive: no binding seen”.
Under B11 stands “inactive: no binding seen”; under B12, “inactive: no binding seen”; under B13, “inactive: no binding seen”.
With B14, the “apparent Kd” value was “inactive: no binding seen”.
In the case of B15 it was “inactive: no binding seen”; in that of B16, “inactive: no binding seen”; in that of B17, “inactive: no binding seen”.
Turning to B18, the “apparent Kd” value was “inactive: no binding seen”.
Under B19 stands “inactive: no binding seen”.
